The experiment concerns the target T1, cyclin-dependent kinase inhibitor 1A/p21 (p21) (mouse (endogenous in LS8)) (UniProt P39689).
T1 sequence: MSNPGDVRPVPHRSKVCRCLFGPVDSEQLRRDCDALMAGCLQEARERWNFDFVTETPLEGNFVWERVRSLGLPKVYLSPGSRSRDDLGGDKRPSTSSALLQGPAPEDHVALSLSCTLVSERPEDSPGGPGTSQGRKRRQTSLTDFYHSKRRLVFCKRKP
Description: co-IP; Pierce Co-immunoprecipitation Kit; 1 mg LS8 lysate protein precipitated with mouse anti-p21, blotted with rabbit anti-MDM2; cells treated with Nutlin-3a (5 uM) for 2 h, then NaF (5 mM) for 6 h; mouse IgG as negative control.

Sequences of proteins named here, by UniProt entry; tags and fusion partners are left off.
UniProt P23804: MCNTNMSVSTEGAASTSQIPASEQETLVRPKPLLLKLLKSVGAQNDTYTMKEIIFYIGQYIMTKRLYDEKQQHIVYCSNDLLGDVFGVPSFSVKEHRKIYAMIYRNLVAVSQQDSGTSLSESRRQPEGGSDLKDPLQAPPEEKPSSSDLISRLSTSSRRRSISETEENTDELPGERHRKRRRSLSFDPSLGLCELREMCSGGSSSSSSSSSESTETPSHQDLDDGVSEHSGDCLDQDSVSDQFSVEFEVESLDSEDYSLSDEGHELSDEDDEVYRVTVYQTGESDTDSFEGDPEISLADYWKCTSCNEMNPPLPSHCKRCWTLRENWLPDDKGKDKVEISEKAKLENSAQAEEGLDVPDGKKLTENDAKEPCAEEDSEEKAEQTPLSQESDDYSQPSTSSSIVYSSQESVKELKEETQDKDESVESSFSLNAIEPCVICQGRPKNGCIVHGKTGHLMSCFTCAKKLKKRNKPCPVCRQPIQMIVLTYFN

Results are given in words; binding and its absence hold for the method and conditions named. Binding seen in cells or lysates may run through a third protein. Some binding calls cover weakened binding; strength is not graded here.

“murine double minute 2 protein (MDM2) (from UniProt P23804 1-489)”: the binding result is “binds”.

These data come from publication PMC6562432.
